# Assay results from PubChem BioAssay AID1508600 (Functional Genomics Laboratory (NCATS/FGL), 2020).
# Screen size: about 53,000 sequences; about 3,700 (7%) were called active.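 How the source made its calls: active means gene knockdowns whose robust z-score for IL-1 alpha signal is at least 2 or at most -2, so actives lie on both sides; inactive means the rest.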 This is one part of the list.
# Experiment: Components of the Cytosolic LPS Sensing Pathway: Gene Identification via Genome-wide siRNA Screen;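 further: robust z of the log signal after scaling to non-targeting control siRNA wells of the plate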
# Details: RAW264.7 macrophages, IL-1a HTRF, actives lie on both sides, screened at 100 nM (by protocol), cells primed 5 h with Pam3CSK4 first
# Outline: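 Knockdown: 100 nM siRNA, 48h, RAW264.7. Stimulation: Pam3CSK4 5 h, then LipidA via TransIT-TKO 24 h. Output: supernatant IL-1a HTRF, negative-control-normalized, log robust z-score; viability by CellTiter-Glo.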
row,Sequence,z-score
1,CCGAAUCUCUGUGUACUAUTT against Tubb5,inactive: -1.33
2,GGCCCUUUGAGUCGUUCCUTT against Batf3,active: 2.6
3,CCAAUAACUUCGCUUAUAUTT against Ms4a2,inactive: -0.389
4,GGUUGUUUAAACUCAGUUUTT against Slco4c1,inactive: 0.699
5,GCUUUUUACAGGAUAUACATT against Zfp644,inactive: -0.143
6,GCUUGUAGAAACCUUUUUGTT against Tm4sf1,inactive: -0.591
7,GGGACUUGUCCAUCCUUUUTT against Qrfprl,inactive: -1.71
8,GGAAAUUUUUCGCAUGACCTT against Ddx39b,active: -2.13
9,GUUUUGUUUAUUCAGCCAGTT against Olfr1002,inactive: -0.825
10,GGUUGUUGAAAAGUCUUUATT against Rasa2,inactive: -0.102
11,CCACCAUUUAACUCGGCCUTT against Prkaa1,inactive: 0.196
12,GGAGAAAAACUUCUUGGUATT against Cd96,inactive: 1.16
13,ACAGGCAAGAUGAGAGCGATT against Cux1,inactive: 0.124
14,GGUAGUGCUUCUCAUAUUATT against Olfr1437,inactive: -0.419
15,GGAAGAAUAUUGAGGAGAATT against Tnni2,inactive: 0.362
16,GGACAAAACAUCUUAGAUGTT against Amacr,inactive: 0.116
17,GGACGGUAAAGUGAAUCAUTT against Tas2r105,inactive: 0.386
18,GGGCAGAGUGGAGUAUCUGTT against Cbx4,inactive: -1.35
19,GGUUAGAAGAAGAAACCCGTT against Prph,inactive: -1.62
20,GCAGAAACGACUUCGAAACTT against Cdc20,inactive: 0.405
21,GCUCCUCGCACUCUUUUGGTT against Olfr551,inactive: -0.567
22,GGUACAGGACCAAGAAUGGTT against Aknaos,inactive: 0.927

row,Sequence,z-score
1,CGGAUUGAUCCUAAUGUAUTT against Igf1r,inactive: 1.09
2,GGAGAUUAUAGCUCAAGAUTT against Bfsp1,inactive: 0.061
3,GCUUGUGGUUUUUCACAUCTT against Mrgprb3,inactive: -0.108
4,GGAAAUCCGUGCAGAAAUUTT against Man1a2,inactive: 0.72
5,CGGCAAGGUUUGAAUUUAGTT against Reep3,inactive: -0.657
6,GGAGUUAGAAUUGAACCUUTT against Mr1,inactive: -1.49
7,GCAUCAUUCCUACCGAUGUTT against Ly6g5b,inactive: -0.877
8,GCCGACAAGAGAUACAUGATT against Mettl6,inactive: 1
9,GGAUUGCCUGCUCACUAACTT against Pced1b,inactive: 0.196
10,GCUGGUCAUUACUAAUACATT against Rsbn1,inactive: 1.5
11,CCUAAACUGUAGUUGUCUGTT against S100a14,inactive: 0.209
12,CCUCUACUGUACUUAUACATT against Cpn2,inactive: -0.557
13,GGCUGUCUUGUCCAAAUGUTT against Olfr1357,active: -2.9
14,CCAAUGAGUUAAUCACCUUTT against Olfr1135,inactive: 0.587
15,GAGAAAUACCAUUUCCUACTT against Olfr497,inactive: 0.381
16,GCCAUCUUAAACAUGCCUGTT against Tdpoz2,inactive: 0.0164
17,GCAGAUCCGAGACAAGUAUTT against Cplx2,inactive: -1.91
18,CCUACAUCCUUACAUCAUUTT against 4921511C20Rik,inactive: -0.936
19,CCAAGUCGGACUUACGGUUTT against Cnpy3,inactive: -1.65
20,GUGCUGCGUGUGUCAAUGUTT against Asb11,inactive: 1.08
21,GGCACCUAACGACUUCAACTT against Pygm,inactive: 0.782
22,CGUGCUGUAUGGCAAAGUUTT against Bst1,inactive: 0.563

# As a working copy, part of the list above.
row,Sequence,z-score
2,GGAGAUUAUAGCUCAAGAUTT against Bfsp1,inactive: 0.061
3,GCUUGUGGUUUUUCACAUCTT against Mrgprb3,inactive: -0.108

# Continued.

row,Sequence,z-score
1,GGGCCUUUCACUUUUAUUATT against Tmprss2,inactive: 1.02
2,GGCACGAUAGUUUUUGAGATT against Myo1h,inactive: -1.59
3,GCAUACAGCUCAACAGUCATT against Padi2,inactive: -0.51
4,GGGCUCUGAGGAUACCAUUTT against Hck,inactive: 0.429
5,CGGUCAUGUCUACAUGUGCTT against Cfp,inactive: -0.0864
6,GCACAGUCAACUAACUGCGTT against Apom,inactive: -0.0609
7,GGUGUUUGCCAUGUUCGCATT against Avpr1a,inactive: -0.518
8,GGUAGAUGAUGAAAAACAATT against Erich3,active: -2.02
9,GGAGAAGCUGUUUGUUCUGTT against Ftcd,inactive: 0.507
10,GGGCUUCACCCUCAUACAATT against Pirt,active: 2.26
11,GGACCACAAAGCAGAAAAUTT against Klhdc7a,inactive: -0.959
12,GCUUCAACAUCAGUUUGGGTT against Olfr1392,inactive: 0.422
13,GCGACUUCAGAUUUCAUUATT against Srsf2,inactive: -0.439
14,GGAUCCAGACUUAAGCUUATT against Zgpat,active: 2.57
15,GGGACUUUGGGAAGUGAUGTT against Bbs5,inactive: -1.33
16,GGCGGACUGUUACUUCACCTT against H2-Ob,inactive: 0.0162
17,GGAUAAAGUCUUCAGGUGGTT against Olfr1499,inactive: -0.606
18,CCGGAUGGGAAUCGCUAAATT against Slc22a13b,active: 2.17
19,GGGUAUCAAGUAUAUCUCUTT against Zfp532,inactive: 0.773
20,GGUUCCUACGAGUUCACUGTT against B130024G19Rik,active: -2.76
21,GGAAGAUGAUCUUGACCAGTT against Ccdc181,inactive: -0.025
22,CCGUAAACGAAAUCAUAGUTT against Wdr20rt,inactive: 0.618

row,Sequence,z-score
1,CCUUGAAGCCUAGAAAUGATT against Tut4,inactive: -1.53
2,CCAAGUUCUUUAGUUAAAGTT against Fshb,inactive: 0.0269
3,GCGAACUGAUCAUCAACCGTT against Zfp566,inactive: -1.07
4,CGGAAGUUCCUCAUUGCAUTT against Ftcd,inactive: -0.281
5,GGCAGUGAGAACCAAGUUUTT against Ccl24,inactive: -0.913
6,CCUAAAAUACCUUUGUGAGTT against Nfkbie,inactive: -0.371
7,GCUAUAUGGUUGAAGAUUUTT against Ptprj,inactive: 0.0839
8,GGUCAGAUUCCUGAAAUUATT against Vbp1,inactive: -0.807
9,GGGAAAGAGUACUAAGAAUTT against Olfr678,inactive: -1.03
10,GGCUUUGAGUAAACUGUUCTT against Olfr1014,inactive: -1.83
11,AUAGAGAAUACAACACUACTT against Olfr196,inactive: 0.203
12,GGGAUAUUCAGCAAACAUUTT against Xpo5,inactive: 1.01
13,GCUACAGAUUAGGGACAUATT against Pcdhb2,active: 4.53
14,CCAGUAACUCAUGGUGCCUTT against Mapkapk3,inactive: 0.129
15,GGAAGAUACUGUGGUUUAUTT against Agbl3,active: 2.29
16,GGAGGUGUGGCAUCUGGAUTT against Gsn,inactive: 1.19
17,GGAGUCCUCUAAUGUAAAUTT against Elovl4,inactive: 0.0471
18,GGAUGCUGAUUUAAAGACUTT against Rai14,inactive: 1.69
19,GGGACAAGUCAAAAACGAGTT against Cdc23,inactive: 1.13
20,GGAUGUGCAAUAAUUUUCUTT against Fzd4,inactive: 1.51
21,GCUUCAAGUCAACUUAGUCTT against Hal,inactive: 1.24
22,CCAACUCCUCUCUGGUUACTT against Olfr95,inactive: 0.31

row,Sequence,z-score
1,GGUUUUUUGAUGUGGAUUGTT against Cyp4f14,inactive: 0.931
2,GCAUUUGAGGCACUUAGAATT against Lrrc4c,inactive: 0.367
3,GGAGGAGAAUGCCACAACUTT against Cd320,inactive: -0.227
4,CCGAAGCCUUGAAAGCAGUTT against Shq1,inactive: 0.302
5,GGACCAGAAACAAAUUAAGTT against Neurod6,inactive: 0.638
6,CAAUAGGACUCAUCCUGGUTT against Olfr670,inactive: -1.57
7,GGACAAUCUGAUUCAAGUATT against Ms4a2,inactive: 0.104
8,GGAAAUCCGAUAAACCACUTT against Grik1,inactive: -1.09
9,GGACUGCAUGAGAUUUCCCTT against Rhoc,inactive: -0.0707
10,GCAUUGAGAUGAGAGCCUATT against Uroc1,inactive: -0.167
11,GCUUUGGAUCAUUCAGACCTT against Celf2,inactive: -1.62
12,GGGAUUCUGGAAAUCUUUGTT against Esr2,inactive: 0.998
13,GGUUGUCGGAACCAACCCATT against Lrp5,inactive: -0.125
14,CCUACGGGAAACGAAAGCUTT against A730085E03Rik,inactive: 0.409
15,GGCUCAUGACCACCAAAACTT against Pef1,inactive: -1.04
16,GGGAGUGAUGUUCUUAUUGTT against Slc35f2,inactive: -1.3
17,GGCAGCUAUAGGUUAGAUUTT against Gm5600,inactive: -0.674
18,GGACACAGAAUGUUCUUGGTT against Rps3,inactive: 0.029
19,GUUAUUUGUAUGGUGAGAUTT against Hpcal1,inactive: -1.06

# Quoted from the listing.
# z-score, GGACCAGAAACAAAUUAAGTT against Neurod6 is entered as inactive: 0.638
# z-score, GCGAACUGAUCAUCAACCGTT against Zfp566 is entered as inactive: -1.07
# z-score, CCGAAUCUCUGUGUACUAUTT against Tubb5 is entered as inactive: -1.33
